# Source: the supplement of paper PMC10338343
# ± gives the standard deviation. This is a selection; strong and weak results do not stand in their true shares. Many entries were measured with a wide error.
# Experiments:
# [1] = system: MILI (PIWIL2) piRISC loaded with piRNA #1 (26 nt); experiment: pre-steady-state target cleavage rate (min^-1); higher = faster piRNA-guided slicing of the target; conditions: guide: piRNA #1 5'p-UGAGGUAGUAGGUUGUAUAGUAUCCA; auxiliary factor: 500 nM mouse GTSF1
# How it was run: (§1)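 The pre-steady-state cleavage rate was derived from a burst-and-steady-state fit of Cleave-'n-Seq data. For these assays, 1 nM active affinity-purified piRISC loaded with a single synthetic guide was mixed with […] a transcribed, DNA-blocked target RNA library in HEPES–potassium acetate buffer at 33 °C, with or without 500 nM GTSF1 partner protein, for 0–8 or 0–960 min. Sequencing counts of uncleaved targets were normalised to depth and to weakly complementary targets, and k3 was capped at 0.0001 min^-1 after three trials were pooled.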
# [2] = system: MIWI (PIWIL1) piRISC loaded with piRNA #1 (30 nt); experiment: as above; conditions: guide: piRNA #1 5'p-UGAGGUAGUAGGUUGUAUAGUAUCCAGAGG; auxiliary factor: 500 nM mouse GTSF1
# How it was run: as §1
# [3] = system: EfPiwi piRISC loaded with piRNA #1 (26 nt); experiment: pre-steady-state target cleavage rate (min^-1); guide: piRNA #1 5'p-UGAGGUAGUAGGUUGUAUAGUAUCCA; MIWI and MILI are mouse PIWI proteins and EfPiwi is from a freshwater sponge; tags in brackets are library labels; higher = faster piRNA-guided slicing of the target; conditions: auxiliary factor: 500 nM Ephydatia muelleri Gtsf1
# How it was run: as §1
Sequence,pre-steady-state target cleavage rate [1],pre-steady-state target cleavage rate [2],pre-steady-state target cleavage rate [3]
GGAGACCUAUGUAUACAACCUCUACCUCA,0.00061 ± 0.011,0.000261 ± 0.011,–
GGAGACCUAUGAAUUCAACCUACUACGUCA,0.000244 ± 0.017,0.000195 ± 0.017,–
GGAGACGAUACUAUACAACCUAGAUGGAGA [g9:g24:cont:t1A],0.00112 ± 0.0068,0.000869 ± 0.0093,–
GGAGACCUAUGAUAUGUUCCUUACUACCUCA,0.000147 ± 0.017,0.000223 ± 0.0075,–
GGAGACCUAUGAAUACACACCUACUACCUCA,0.000975 ± 0.0076,0.000738 ± 0.0086,–
GGAGACCUAUGAAUCCAACCUACUACCUCA,0.0013 ± 0.0059,0.0015 ± 0.0056,–
GGAGACCUAUCUAUACAACCAUGUACCUCA,0.00233 ± 0.0036,0.000502 ± 0.01,–
GGAGACCUAUGAUAUCAACCUAACUACCUCA,0.00218 ± 0.0032,0.000458 ± 0.0047,–
GGAGACCUAUGAUUUCAACCUACUACCUGA,0.000897 ± 0.0055,0.000183 ± 0.0096,–
GGAGACCUAUGAAUACAACCUACACCUCA,0.000159 ± 0.019,0.000171 ± 0.014,–
GGAGACCUAUGAAUACUACCUUCUACCUCA,0.00259 ± 0.0031,0.000351 ± 0.005,–
GGAGACCUAUGAUAUCAACCUACUCCCUCA,0.00178 ± 0.0038,0.000542 ± 0.0078,–
GGAGUGGAUACUAUACUAACCUACUACCUCA,0.00162 ± 0.0047,0.00042 ± 0.019,–
GGAGACCUAUGAUAUCAACCUACUACCUAA,0.00177 ± 0.005,0.000198 ± 0.017,–
GGAGACCUAUGAUUACAACCUCUACCUCA,0.000139 ± 0.026,0.000204 ± 0.0085,–
GGAGACCUAUGAUUACAACGUACUACCUGA,0.00166 ± 0.0066,0.000304 ± 0.012,–
GGAGACCUAUGAUAUCAACCUACUACCUCC [g2:g15:cont:t1C],0.00261 ± 0.0037,0.000865 ± 0.0056,–
GGAGACCUAUGAAUACAACCUGACUACCUCA,0.00187 ± 0.0044,0.000176 ± 0.013,–
GGAGACCUAUGAUUACAACCUACUUCGUCA,0.00164 ± 0.0052,0.000705 ± 0.0073,–
GGAGACCUAUGAAUACACCCUACUACCUCA,0.00267 ± 0.0034,0.00213 ± 0.0031,–
GGAGACCUAUGAUUACAACCUACUACGACA,0.00147 ± 0.0043,0.00028 ± 0.0084,–
GGAGACCUAUCUAUACAACCUACACCUCA,0.00183 ± 0.0032,0.000682 ± 0.0074,–
GGAGACCUAUGAAUACAACUACUACCUCA,0.000843 ± 0.0057,0.000201 ± 0.011,–
GGAGACCUAUGAUUACACACCUACUACCUCA,0.00101 ± 0.0068,0.000282 ± 0.0089,–
GGAGACCUAUGAUAACAACCUACUACCUA,0.00181 ± 0.0038,0.000315 ± 0.0082,–
GGAGACCUAUGAUAACAUCCUACUUCCUCA,0.00421 ± 0.0027,0.00022 ± 0.011,–
GGAGACCUAUGAUUUCAACCUACUACCACA,0.000882 ± 0.0058,0.000165 ± 0.014,–

# Reprinted at random: three records from the list.
Sequence,pre-steady-state target cleavage rate [1],pre-steady-state target cleavage rate [2],pre-steady-state target cleavage rate [3]
GGAGACCUAUGAUUACAACCUACUUCGUCA,0.00164 ± 0.0052,0.000705 ± 0.0073,–
GGAGACCUAUGAUAUGUUCCUUACUACCUCA,0.000147 ± 0.017,0.000223 ± 0.0075,–
GGAGACCUAUGAUUUCAACCUACUACCUGA,0.000897 ± 0.0055,0.000183 ± 0.0096,–

# Additional records follow:

Sequence,pre-steady-state target cleavage rate [1],pre-steady-state target cleavage rate [2],pre-steady-state target cleavage rate [3]
GGAGACCUAUGAAUACACCUACUACCUCA,0.0011 ± 0.0059,0.000821 ± 0.0052,–
GGAGACCAUACUAUACUAACCUACUACCUCA,0.00233 ± 0.005,0.000645 ± 0.012,–
GGAGACCUAUGAUAUGUUGCUUCUAGCUCA,0.000543 ± 0.012,0.00136 ± 0.0065,–
GGAGACCUAUGAUAUCAACCGUACUACCUCA,0.000778 ± 0.0059,0.000308 ± 0.0059,–
GGAGUGGAUACUAUACAACCUACUAGGUCA,0.000449 ± 0.0046,0.000437 ± 0.0054,–
GGAGACCUAUGAUAUGUUGGUACUACCGCA,0.000341 ± 0.019,0.0003 ± 0.023,–
GGAGACCUAUGAUAUGACACCUACUACCUCA,0.000989 ± 0.0076,0.000733 ± 0.005,–
GGAGACCUAUGAUUACAACCUUCUUCCUCA,0.00148 ± 0.0036,0.000416 ± 0.007,–
GGAGACCUAUGAUAUCAAUCCUACUACCUCA,0.000172 ± 0.018,0.000116 ± 0.016,–
GGAGACCUAUGAUAACAACCUACUACGACA,0.000562 ± 0.0097,0.000204 ± 0.012,–
GGAGACCUAUGAUAACAACCUACUACCCUCA,0.00211 ± 0.0024,0.000956 ± 0.0043,–
GGAGACCUAUGAUAUGAAGCUUCUACCUCA,0.000122 ± 0.026,0.000152 ± 0.014,–
GGAGACCUAUGAUAACAACCAACUACCUCA,0.00165 ± 0.0045,0.000105 ± 0.027,0.000266 ± 0.012
GGAGACCUAUGUAUACAACCACUACCUCA,0.000661 ± 0.0086,0.000926 ± 0.0045,–
GGAGACCUAUGUAUACAACCUAGAACCUCA,0.000881 ± 0.0052,0.000377 ± 0.0093,–
GGAGACCUAUGAUAUGUUGGUACUCACCUCA,0.000209 ± 0.024,0.000265 ± 0.014,–
GGAGACCUAUGAUAACAACCUACUACCACA,0.0018 ± 0.0044,0.000255 ± 0.011,–
GGAGACCUAUGAUAACAACCCUACUACCUCA,0.000626 ± 0.0087,0.000158 ± 0.013,0.000587 ± 0.013
GGAGUGGAUACUAUACAACCUACAACCUGA,0.000575 ± 0.0053,0.00128 ± 0.0047,0.00253 ± 0.0013
GGAGACCUAUGAUAACAACCUAGAUCCUCA,0.000746 ± 0.0072,0.000195 ± 0.012,–
GGAGACCUAUGAUAUGUUGCUACUACCCCA,0.000431 ± 0.017,0.000287 ± 0.0098,0.000321 ± 0.013
GGAGACCUAUGAUAUGUUGGUACUACCUUCA,0.000301 ± 0.011,0.000442 ± 0.0074,–
GGAGACCUAUGAUAUGUUGGUACCUACCUCA,0.000335 ± 0.016,0.000239 ± 0.016,0.000482 ± 0.0067
GGAGACCUAUGAUAUGUACGAUCUACCUCA,0.00014 ± 0.037,0.000253 ± 0.012,–
GGAGACCUAUGAUUACAACCAUGUACCUCA,0.00103 ± 0.0047,0.00105 ± 0.0049,–
GGAGACCUAUGAUAUGUUGCUUCAACCUCA,0.000314 ± 0.016,0.000577 ± 0.0071,–
